Measured values published in the supplement of paper PMC3682954.
Values joined by “and” are separate entries in the source; they are usually repeats but may differ in a detail not shown here. Equal entries are not always repeated. Structures can show the parent of a compound that is named as a salt. ± gives the standard deviation of the averaged measurements. This is one part of the list. Repeats are few or missing, and single values can be far off.

Test system: RAW 264.7
Assay: HMGB1-induced TNF-alpha production relative to HMGB1-stimulated control; higher = more TNF-alpha secretion (less inhibition)
Conditions: stimulus: HMGB1 5 ug/ml, 18 h
[1] = compound concentration: 1 ug/ml

Row | SMILES | HMGB1-induced TNF-alpha production (compound concentration: 3 uM) | HMGB1-induced TNF-alpha production [1] [%]
1 | Clc1ccc2c(c1)N=C(N1CCNCC1)c1ccccc1N2 [N-Desmethylclozapine] | 73.6% | 
2 | CC(=O)OC/C=C(C)/C=C/C=C(C)/C=C/C1=C(C)CCCC1(C)C | 87.4% | 
3 | CC(=O)OC/C=C(C)/C=C/C=C(C)/C=C/C1=C(C)CCCC1(C)C [Vitamin A acetate] | 85.9% | 
4 | O=C1C(CC[S+]([O-])c2ccccc2)C(=O)N(c2ccccc2)N1c1ccccc1 (configuration not stated) | 95.1% | 
5 | O=C1C(CC[S+]([O-])c2ccccc2)C(=O)N(c2ccccc2)N1c1ccccc1 (configuration not stated) [Sulfinpyrazone] | 53.7% | 
6 | O=C1NC(=O)/C(=C/c2ccc(-c3ccc(F)cc3O)o2)S1 | 113% | 
7 | CC(=O)Oc1cc(C(F)(F)F)ccc1C(=O)O [Triflusal] | 61.8% | 
8 | N=c1ccn2c(n1)O[C@H]1[C@H](O)[C@@H](CO)O[C@H]12 [Ancitabine hydrochloride] | 110% | 
9 | N=c1ccn2c(n1)O[C@H]1[C@H](O)[C@@H](CO)O[C@H]12 | 102 ± 2.5% | 
10 | N=c1ccn2c(n1)O[C@H]1[C@H](O)[C@@H](CO)O[C@H]12 [Cyclocytidine] | 77.6% | 
11 | C[N+](C)(C)CCO.[Br-] [Choline bromide] | 87.9% | 
12 | CCCCCCCC/C=C\CCCCCCCC(=O)NCc1ccc(O)c(OC)c1 [Olvanil] | 105% | 
13 | O=c1[nH]cc(F)c(=O)[nH]1 [5-Fluorouracil] | 102 ± 17% | 
14 | O=c1[nH]cc(F)c(=O)[nH]1 | 87.1 ± 6.4% | 
15 | O=c1[nH]cc(F)c(=O)[nH]1 [5-fluorouracil] | 76.4% | 
16 | C[C@]12C=CC(=O)C=C1CC[C@@H]1[C@@H]2[C@@H](O)C[C@@]2(C)[C@H]1CC[C@]2(O)C(=O)CO | 39.3% | 
17 | C[C@]12C=CC(=O)C=C1CC[C@@H]1[C@@H]2[C@@H](O)C[C@@]2(C)[C@H]1CC[C@]2(O)C(=O)CO [Prednisolone] | 36.7 ± 4.7% | 
18 | CC(C)Cc1ccc([C@H](C)C(=O)O)cc1 [S-(+)-ibuprofen] | 125% | 
19 | CC(C)Cc1ccc([C@H](C)C(=O)O)cc1 [S(+)-Ibuprofen] | 110% | 
20 | CS(=O)(=O)c1ccc([C@@H](O)[C@@H](CO)NC(=O)C(Cl)Cl)cc1 | 124% | 
21 | CS(=O)(=O)c1ccc([C@@H](O)[C@@H](CO)NC(=O)C(Cl)Cl)cc1 [Thiamphenicol] | 72.8% | 
22 | O=C(O)Cc1ccccc1Nc1c(Cl)cccc1Cl [Diclofenac] | 95.9% | 

2 entries drawn at random from those above:
Row | SMILES | HMGB1-induced TNF-alpha production (compound concentration: 3 uM) | HMGB1-induced TNF-alpha production [1] [%]
13 | O=c1[nH]cc(F)c(=O)[nH]1 [5-Fluorouracil] | 102 ± 17% | 
12 | CCCCCCCC/C=C\CCCCCCCC(=O)NCc1ccc(O)c(OC)c1 [Olvanil] | 105% | 

Continuation:

Row | SMILES | HMGB1-induced TNF-alpha production (compound concentration: 3 uM) | HMGB1-induced TNF-alpha production [1] [%]
23 | O=C(O)Cc1ccccc1Nc1c(Cl)cccc1Cl [Diclofenac sodium] | 102 ± 9.5% | 
24 | C[C@@H](c1ncncc1F)[C@](O)(Cn1cncn1)c1ccc(F)cc1F | 99.8% | 
25 | CN1CCN(CCCN2c3ccccc3Sc3ccc(S(=O)(=O)N(C)C)cc32)CC1 [Thioproperazine dimesylate] | 64.4% | 
26 | Cc1cc2c(C(C)C)c(O)c(O)c(/C=N/NC(=O)c3ccoc3C)c2c(O)c1-c1c(C)cc2c(C(C)C)c(O)c(O)c(/C=N/NC(=O)c3ccoc3C)c2c1O |  | 70.4
27 | COC(=O)C1=C(C)NC(C)=C(C(=O)OC)C1c1ccccc1[N+](=O)[O-] | 89.3 ± 18% | 
28 | COC(=O)C1=C(C)NC(C)=C(C(=O)OC)C1c1ccccc1[N+](=O)[O-] [Nifedipine] | 88.1 ± 30% | 
29 | CNC(=O)[C@H]1O[C@@H](n2cnc3c(NCc4ccc(N)cc4)ncnc32)[C@H](O)[C@@H]1O | 92.2% | 
30 | COc1cc2c(cc1O)CC[C@@H]1[C@@H]2CC[C@]2(C)[C@@H](O)CC[C@@H]12 [2-methoxyestradiol] | 130% | 
31 | Clc1ccccc1CN1CCc2sccc2C1 [Ticlopidine] | 99.2% | 
32 | Clc1ccccc1CN1CCc2sccc2C1 | 87% and 91.6% | 
33 | Clc1ccccc1CN1CCc2sccc2C1 [Ticlopidine hydrochloride] | 54.2% | 
34 | CCN(CC)CCOC(=O)C1(c2ccc([N+](=O)[O-])cc2)CCCC1 [Nitrocaramiphen hydrochloride] | 63.9% | 
35 | Nc1ccc(O)c(C(=O)O)c1 [5-Aminosalicylic acid] | 98% | 
36 | Nc1ccc(O)c(C(=O)O)c1 | 94.5% | 
37 | Nc1ccc(O)c(C(=O)O)c1 [Mesalamine] | 118% | 
38 | Nc1ccc(O)c(C(=O)O)c1 [5-Amino-2-hydroxy-benzoic acid] | 106% | 
39 | Cc1cc(C(C)(C)CC(C)(C)C)ccc1OCCOCC[N+](C)(C)Cc1ccccc1 | 77.5% | 
40 | Cc1cc(C(C)(C)CC(C)(C)C)ccc1OCCOCC[N+](C)(C)Cc1ccccc1 [Methyl benzethonium chloride] | 93.1% | 
41 | O=C1NC(=O)/C(=C\c2ccc3nccnc3c2)S1 | 80.3% | 
42 | Cc1cc(NC(=O)C2=C(O)c3ccccc3S(=O)(=O)N2C)no1 [Isoxicam] | 64.3% | 
43 | Cc1cc(NC(=O)C2=C(O)c3ccccc3S(=O)(=O)N2C)no1 | 90.3% | 
44 | Cc1cc(C)cc(OCC(=O)N/N=C/c2c(O)c(O)c(C(C)C)c3cc(C)c(-c4c(C)cc5c(C(C)C)c(O)c(O)c(/C=N/NC(=O)COc6cc(C)cc(C)c6)c5c4O)c(O)c23)c1 |  | 92.7

Single entries from the list.
Under HMGB1-induced TNF-alpha production (compound concentration: 3 uM), CCN(CC)CCOC(=O)C1(c2ccc([N+](=O)[O-])cc2)CCCC1 [Nitrocaramiphen hydrochloride] is listed with 63.9%
Under HMGB1-induced TNF-alpha production (compound concentration: 3 uM), Cc1cc(NC(=O)C2=C(O)c3ccccc3S(=O)(=O)N2C)no1 is listed with 90.3%

Next entries follow:

Row | SMILES | HMGB1-induced TNF-alpha production (compound concentration: 3 uM) | HMGB1-induced TNF-alpha production [1] [%]
45 | CN(C)CCCN1c2ccccc2CCc2ccc(Cl)cc21 [Clomipramine hydrochloride] | 62.9 ± 7.3% | 
46 | CN(C)CCCN1c2ccccc2CCc2ccc(Cl)cc21 | 84.6% | 
47 | CO[C@@]1(NC(=O)C2SC(=C(C(N)=O)C(=O)O)S2)C(=O)N2C(C(=O)O)=C(CSc3nnnn3C)CS[C@@H]21 (some centres not stated) [Cefotetan] | 89.3% | 
48 | C#C[C@]1(OC(C)=O)CC[C@H]2[C@@H]3CCC4=C[C@@H](OC(C)=O)CC[C@@H]4[C@H]3CC[C@@]21C | 84.5% | 
49 | C#C[C@]1(OC(C)=O)CC[C@H]2[C@@H]3CCC4=C[C@@H](OC(C)=O)CC[C@@H]4[C@H]3CC[C@@]21C [Ethynodiol diacetate] | 112% | 
50 | O=C(Nc1ccn([C@@H]2O[C@H](CO)[C@@H](O)[C@H]2O)c(=O)n1)c1ccccc1 [N4-Benzoylcytidine] |  | 81.3
51 | O=C(O[C@H]1[C@H](Oc2ccccc2COC(=O)C2(O)C=CCCC2=O)O[C@H](CO)[C@@H](O)[C@@H]1O)c1ccccc1 (some centres not stated) | 107% | 
52 | Nc1ccc(S(=O)(=O)Nc2ncccn2)cc1 | 95.5% | 
53 | Nc1ccc(S(=O)(=O)Nc2ncccn2)cc1 [Sulfadiazine] | 85.9 ± 21% | 
54 | COc1ccc(-c2coc3ccc(OC4OC(COC(C)=O)C(OC(C)=O)C(OC(C)=O)C4OC(C)=O)cc3c2=O)cc1 (configuration not stated) |  | 82.4
55 | CO[C@@]1(NC(=O)C(C(=O)O)c2ccc(O)cc2)C(=O)N2C(C(=O)O)=C(CSc3nnnn3C)CO[C@@H]21 (some centres not stated) [Moxalactam disodium salt] | 123% | 
56 | CO[C@@]1(NC(=O)C(C(=O)O)c2ccc(O)cc2)C(=O)N2C(C(=O)O)=C(CSc3nnnn3C)CO[C@@H]21 (some centres not stated) | 89.6% | 
57 | C#C[C@]1(O)CC[C@H]2[C@@H]3CCC4=CC(=O)CC[C@@H]4[C@H]3CC[C@@]21C | 73.6% | 
58 | C#C[C@]1(O)CC[C@H]2[C@@H]3CCC4=CC(=O)CC[C@@H]4[C@H]3CC[C@@]21C [Norethindrone] | 78.4 ± 6.3% | 
59 | O=C(O)CNC(=O)c1ccccc1 [Hippuric acid] |  | 74.5
60 | COc1cc2c(CCNC(C)=O)c[nH]c2cc1O [6-Hydroxymelatonin] | 90.5% | 
61 | CNc1ncnc2c1ncn2[C@H]1C[C@H](OP(=O)(O)O)[C@@H](COP(=O)(O)O)O1 | 109% | 
62 | COc1ccc(CN(CCN(C)C)c2ccccn2)cc1 [Mepyramine] | 92.5% | 
63 | COc1ccc(CN(CCN(C)C)c2ccccn2)cc1 [Pyrilamine maleate] | 78.1 ± 38% | 
64 | COc1ccc(CN(CCN(C)C)c2ccccn2)cc1 | 77.3% | 
65 | CCCNC(C)C(=O)Nc1ccccc1C (configuration not stated) | 81.8% | 
66 | CCCNC(C)C(=O)Nc1ccccc1C (configuration not stated) [Prilocaine hydrochloride] | 89.2 ± 21% | 

Row | SMILES | HMGB1-induced TNF-alpha production (compound concentration: 3 uM) | HMGB1-induced TNF-alpha production [1] [%]
67 | Nc1ncn([C@@H]2O[C@H](CO)[C@@H](O)[C@H]2O)c(=O)n1 [5-azacytidine] | 155% | 
68 | Nc1ncn([C@@H]2O[C@H](CO)[C@@H](O)[C@H]2O)c(=O)n1 | 249 ± 11% | 
69 | CC(COc1ccccc1)N(CCCl)Cc1ccccc1 (configuration not stated) [Phenoxybenzamine hydrochloride] | 91.6 ± 2.1% | 
70 | CC(COc1ccccc1)N(CCCl)Cc1ccccc1 (configuration not stated) [Phenoxybenzamine HCl] | 84.8% | 
71 | CC(COc1ccccc1)N(CCCl)Cc1ccccc1 (configuration not stated) | 84.4% | 
72 | CC(=O)c1ccc(S(=O)(=O)NC(=O)NC2CCCCC2)cc1 | 93% | 
73 | CC(=O)c1ccc(S(=O)(=O)NC(=O)NC2CCCCC2)cc1 [Acetohexamide] | 77.1 ± 4.4% | 
74 | CCCCC[C@H](O)/C=C/[C@@H]1[C@@H](C/C=C\CCCC(=O)O)[C@@H](O)C[C@H]1O [Dinoprost] | 104% | 
75 | CCCCC[C@H](O)/C=C/[C@@H]1[C@@H](C/C=C\CCCC(=O)O)[C@@H](O)C[C@H]1O [Dinoprost trometamol] | 79.1% | 
76 | CCSC(=N)N [S-Ethylisothiourea hydrobromide] | 70.3% | 
77 | CCOC(=O)c1ccc(OC(=O)CCCCCNC(=N)N)cc1 | 100% | 
78 | CCOC(=O)c1ccc(OC(=O)CCCCCNC(=N)N)cc1 [Gabexate mesilate] | 88.8% | 
79 | OC[C@H]1O[C@H]([S-])[C@H](O)[C@@H](O)[C@@H]1O.[Au+] [Aurothioglucose] | 110% | 
80 | OC[C@H]1O[C@H]([S-])[C@H](O)[C@@H](O)[C@@H]1O.[Au+] | 93.2% | 
81 | CCCN[C@H]1CCc2nc(N)sc2C1 | 100% | 
82 | CCCN[C@H]1CCc2nc(N)sc2C1 [Pramipexole] | 99.4 ± 12% | 
83 | CCC(=O)N1CCN(C(=O)c2ccccc2)CC1 | 86.8% | 
84 | CNC(=O)c1cc2c(cn1)[nH]c1ccccc12 [N-Methyl-beta-carboline-3-carboxamide] | 81.8% | 
85 | Cc1cc(=O)oc2cc(O)ccc12 [Hymecromone] | 85.4% | 
86 | CC(C)C[C@H](NC(=O)[C@@H](COC(C)(C)C)NC(=O)[C@H](Cc1ccc(O)cc1)NC(=O)[C@H](CO)NC(=O)[C@H](Cc1c[nH]c2ccccc12)NC(=O)[C@H](Cc1cnc[nH]1)NC(=O)[C@@H]1CCC(=O)N1)C(=O)N[C@@H](CCCNC(=N)N)C(=O)N1CCC[C@H]1C(=O)NNC(N)=O [Goserelin] | 81.1% | 
87 | CC(C)C[C@H](NC(=O)[C@@H](COC(C)(C)C)NC(=O)[C@H](Cc1ccc(O)cc1)NC(=O)[C@H](CO)NC(=O)[C@H](Cc1c[nH]c2ccccc12)NC(=O)[C@H](Cc1cnc[nH]1)NC(=O)[C@@H]1CCC(=O)N1)C(=O)N[C@@H](CCCNC(=N)N)C(=O)N1CCC[C@H]1C(=O)NNC(N)=O | 93.5% | 
